# From the supplement of paper PMC6411743
# Protein sequences, listed by entry. Tags and fused reporters are not part of them. Lines headed by an entry give the natural chain unless they say otherwise; changes in a name come on top.
# UniProt Q6PCT2: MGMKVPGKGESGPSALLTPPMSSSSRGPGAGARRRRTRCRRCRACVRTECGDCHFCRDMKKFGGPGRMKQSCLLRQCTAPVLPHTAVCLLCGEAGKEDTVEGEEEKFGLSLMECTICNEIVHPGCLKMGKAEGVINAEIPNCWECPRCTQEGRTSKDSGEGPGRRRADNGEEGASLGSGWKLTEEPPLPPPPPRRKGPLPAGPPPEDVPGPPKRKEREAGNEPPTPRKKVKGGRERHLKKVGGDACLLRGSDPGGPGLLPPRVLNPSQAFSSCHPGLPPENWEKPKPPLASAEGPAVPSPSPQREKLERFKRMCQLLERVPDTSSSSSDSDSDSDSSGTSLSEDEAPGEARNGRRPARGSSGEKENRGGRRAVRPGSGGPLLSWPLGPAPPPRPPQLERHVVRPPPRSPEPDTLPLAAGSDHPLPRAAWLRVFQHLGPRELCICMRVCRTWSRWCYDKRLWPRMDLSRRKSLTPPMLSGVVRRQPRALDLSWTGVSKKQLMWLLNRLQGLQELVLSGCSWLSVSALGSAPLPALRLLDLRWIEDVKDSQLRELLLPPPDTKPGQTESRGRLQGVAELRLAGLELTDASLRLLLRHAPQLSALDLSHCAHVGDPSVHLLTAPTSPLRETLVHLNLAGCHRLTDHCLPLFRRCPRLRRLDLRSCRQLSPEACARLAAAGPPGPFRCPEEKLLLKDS
# UniProt P67812: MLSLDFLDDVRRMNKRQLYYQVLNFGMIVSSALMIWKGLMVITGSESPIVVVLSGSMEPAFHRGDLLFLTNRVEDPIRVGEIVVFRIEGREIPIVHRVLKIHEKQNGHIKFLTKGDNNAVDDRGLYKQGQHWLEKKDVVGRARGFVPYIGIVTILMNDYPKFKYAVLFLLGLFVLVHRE
# UniProt Q9Y296, whole entry: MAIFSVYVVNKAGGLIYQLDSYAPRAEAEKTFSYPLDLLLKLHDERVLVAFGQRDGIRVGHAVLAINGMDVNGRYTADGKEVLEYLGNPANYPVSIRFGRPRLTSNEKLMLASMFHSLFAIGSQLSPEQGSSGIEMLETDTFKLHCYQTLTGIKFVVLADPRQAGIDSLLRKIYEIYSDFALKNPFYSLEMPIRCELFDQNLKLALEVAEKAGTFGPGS
# UniProt Q03252: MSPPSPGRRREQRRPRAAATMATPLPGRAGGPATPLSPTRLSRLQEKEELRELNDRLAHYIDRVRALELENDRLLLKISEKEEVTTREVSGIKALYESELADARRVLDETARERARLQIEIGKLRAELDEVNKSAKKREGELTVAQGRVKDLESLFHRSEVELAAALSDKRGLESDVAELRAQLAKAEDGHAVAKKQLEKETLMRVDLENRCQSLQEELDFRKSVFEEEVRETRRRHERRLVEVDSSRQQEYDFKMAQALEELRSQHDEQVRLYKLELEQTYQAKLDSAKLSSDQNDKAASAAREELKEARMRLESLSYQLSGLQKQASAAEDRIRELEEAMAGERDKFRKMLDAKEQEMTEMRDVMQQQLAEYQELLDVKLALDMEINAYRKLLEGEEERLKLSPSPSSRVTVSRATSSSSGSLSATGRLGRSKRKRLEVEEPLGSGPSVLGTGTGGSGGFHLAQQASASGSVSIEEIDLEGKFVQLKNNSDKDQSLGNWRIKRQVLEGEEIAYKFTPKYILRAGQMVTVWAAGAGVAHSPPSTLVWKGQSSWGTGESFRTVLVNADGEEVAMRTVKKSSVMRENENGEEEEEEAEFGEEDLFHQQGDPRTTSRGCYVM
# UniProt Q04726: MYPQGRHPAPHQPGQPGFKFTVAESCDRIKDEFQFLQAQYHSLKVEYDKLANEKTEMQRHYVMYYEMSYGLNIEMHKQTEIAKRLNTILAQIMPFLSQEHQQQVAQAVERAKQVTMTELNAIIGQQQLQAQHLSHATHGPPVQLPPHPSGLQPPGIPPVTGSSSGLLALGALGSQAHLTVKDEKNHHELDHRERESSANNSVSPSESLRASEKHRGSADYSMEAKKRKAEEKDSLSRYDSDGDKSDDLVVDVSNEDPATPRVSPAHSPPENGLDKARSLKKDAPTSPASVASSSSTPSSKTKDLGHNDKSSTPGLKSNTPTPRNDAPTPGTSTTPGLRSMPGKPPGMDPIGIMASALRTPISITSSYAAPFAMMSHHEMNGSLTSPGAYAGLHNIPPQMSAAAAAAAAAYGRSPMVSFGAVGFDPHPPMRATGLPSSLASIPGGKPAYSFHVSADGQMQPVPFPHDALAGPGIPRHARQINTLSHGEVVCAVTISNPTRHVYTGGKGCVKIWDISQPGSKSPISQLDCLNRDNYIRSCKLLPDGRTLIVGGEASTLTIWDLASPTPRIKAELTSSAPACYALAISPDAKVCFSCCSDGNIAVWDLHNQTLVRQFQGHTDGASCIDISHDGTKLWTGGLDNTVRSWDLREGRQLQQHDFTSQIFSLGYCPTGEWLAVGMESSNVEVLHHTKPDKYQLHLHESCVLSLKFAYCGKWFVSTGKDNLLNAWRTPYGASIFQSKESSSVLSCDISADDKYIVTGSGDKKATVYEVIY
# UniProt Q2VPK5: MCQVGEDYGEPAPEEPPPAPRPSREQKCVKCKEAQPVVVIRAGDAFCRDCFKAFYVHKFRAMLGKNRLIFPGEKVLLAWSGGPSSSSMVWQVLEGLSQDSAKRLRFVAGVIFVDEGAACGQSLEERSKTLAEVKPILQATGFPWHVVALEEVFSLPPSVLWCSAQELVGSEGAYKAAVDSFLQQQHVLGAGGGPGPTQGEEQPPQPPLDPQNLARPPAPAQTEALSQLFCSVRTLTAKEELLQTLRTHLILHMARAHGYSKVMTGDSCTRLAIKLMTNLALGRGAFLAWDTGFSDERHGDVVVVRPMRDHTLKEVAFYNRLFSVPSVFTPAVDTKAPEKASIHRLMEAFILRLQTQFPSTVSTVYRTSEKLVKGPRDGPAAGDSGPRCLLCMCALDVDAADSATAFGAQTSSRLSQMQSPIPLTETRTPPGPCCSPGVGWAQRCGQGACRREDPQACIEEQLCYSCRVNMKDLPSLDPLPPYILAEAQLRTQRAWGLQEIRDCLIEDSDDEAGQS
# UniProt Q86W34: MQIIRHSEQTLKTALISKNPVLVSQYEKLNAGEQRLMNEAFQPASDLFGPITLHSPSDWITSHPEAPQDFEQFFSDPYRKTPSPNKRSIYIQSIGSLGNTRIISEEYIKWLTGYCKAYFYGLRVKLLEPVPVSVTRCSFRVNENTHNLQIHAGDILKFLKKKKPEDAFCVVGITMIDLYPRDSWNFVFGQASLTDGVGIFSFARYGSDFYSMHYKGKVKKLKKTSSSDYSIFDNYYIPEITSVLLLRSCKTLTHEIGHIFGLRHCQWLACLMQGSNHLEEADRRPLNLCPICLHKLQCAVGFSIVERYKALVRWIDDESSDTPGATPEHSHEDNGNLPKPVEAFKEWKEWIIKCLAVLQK
# UniProt Q01130: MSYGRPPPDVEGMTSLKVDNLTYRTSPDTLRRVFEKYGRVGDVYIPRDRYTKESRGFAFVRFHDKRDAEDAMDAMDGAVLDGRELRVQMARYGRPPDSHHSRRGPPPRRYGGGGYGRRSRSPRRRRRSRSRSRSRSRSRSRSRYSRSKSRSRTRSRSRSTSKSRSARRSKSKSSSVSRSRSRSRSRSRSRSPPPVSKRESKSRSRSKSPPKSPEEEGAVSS
# UniProt Q96BT3, whole entry: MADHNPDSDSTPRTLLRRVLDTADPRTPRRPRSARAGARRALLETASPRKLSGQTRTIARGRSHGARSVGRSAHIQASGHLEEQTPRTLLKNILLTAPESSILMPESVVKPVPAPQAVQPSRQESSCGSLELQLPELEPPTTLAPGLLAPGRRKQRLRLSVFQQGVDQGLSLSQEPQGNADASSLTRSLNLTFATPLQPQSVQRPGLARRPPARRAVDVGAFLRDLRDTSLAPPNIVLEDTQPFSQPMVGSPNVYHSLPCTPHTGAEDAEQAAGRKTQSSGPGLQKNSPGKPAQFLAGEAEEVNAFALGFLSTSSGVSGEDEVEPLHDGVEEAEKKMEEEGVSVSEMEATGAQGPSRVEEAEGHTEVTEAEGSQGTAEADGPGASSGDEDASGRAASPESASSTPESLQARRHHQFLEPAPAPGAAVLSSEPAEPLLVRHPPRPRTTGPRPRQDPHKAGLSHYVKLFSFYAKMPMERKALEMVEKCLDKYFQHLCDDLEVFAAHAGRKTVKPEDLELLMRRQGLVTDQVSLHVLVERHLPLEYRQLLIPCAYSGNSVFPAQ
# UniProt Q9HAD4: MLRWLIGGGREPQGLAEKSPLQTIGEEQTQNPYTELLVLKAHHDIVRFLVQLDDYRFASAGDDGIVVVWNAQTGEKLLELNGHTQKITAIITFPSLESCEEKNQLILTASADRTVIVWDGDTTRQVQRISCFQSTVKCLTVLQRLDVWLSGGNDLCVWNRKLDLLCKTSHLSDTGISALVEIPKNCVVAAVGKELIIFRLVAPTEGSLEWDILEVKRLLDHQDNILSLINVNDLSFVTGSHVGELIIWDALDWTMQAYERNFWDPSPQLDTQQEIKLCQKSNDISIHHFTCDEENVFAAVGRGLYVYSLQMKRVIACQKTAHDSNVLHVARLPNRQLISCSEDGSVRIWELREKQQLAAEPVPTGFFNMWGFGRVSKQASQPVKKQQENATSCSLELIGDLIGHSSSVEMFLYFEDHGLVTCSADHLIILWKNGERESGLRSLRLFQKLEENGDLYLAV
# UniProt P61769, whole entry: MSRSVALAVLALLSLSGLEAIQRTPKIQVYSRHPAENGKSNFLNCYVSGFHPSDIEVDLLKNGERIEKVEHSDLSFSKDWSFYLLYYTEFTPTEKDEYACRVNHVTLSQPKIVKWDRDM
# UniProt Q8NDF8: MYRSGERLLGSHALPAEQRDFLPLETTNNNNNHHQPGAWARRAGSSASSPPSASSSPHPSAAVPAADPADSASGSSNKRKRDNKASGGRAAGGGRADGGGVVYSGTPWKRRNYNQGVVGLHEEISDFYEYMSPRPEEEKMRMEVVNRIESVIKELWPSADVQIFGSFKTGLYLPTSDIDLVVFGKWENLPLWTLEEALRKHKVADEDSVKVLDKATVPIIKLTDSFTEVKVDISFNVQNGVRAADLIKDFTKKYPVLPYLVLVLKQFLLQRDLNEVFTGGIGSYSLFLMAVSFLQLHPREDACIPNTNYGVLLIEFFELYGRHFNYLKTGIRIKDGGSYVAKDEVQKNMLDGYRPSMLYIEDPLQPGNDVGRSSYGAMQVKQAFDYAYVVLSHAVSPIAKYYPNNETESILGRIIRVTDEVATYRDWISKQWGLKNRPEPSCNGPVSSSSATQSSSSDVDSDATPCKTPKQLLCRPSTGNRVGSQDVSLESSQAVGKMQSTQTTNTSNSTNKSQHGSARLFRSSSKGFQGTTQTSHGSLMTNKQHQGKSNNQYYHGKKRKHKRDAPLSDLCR
# UniProt P60510: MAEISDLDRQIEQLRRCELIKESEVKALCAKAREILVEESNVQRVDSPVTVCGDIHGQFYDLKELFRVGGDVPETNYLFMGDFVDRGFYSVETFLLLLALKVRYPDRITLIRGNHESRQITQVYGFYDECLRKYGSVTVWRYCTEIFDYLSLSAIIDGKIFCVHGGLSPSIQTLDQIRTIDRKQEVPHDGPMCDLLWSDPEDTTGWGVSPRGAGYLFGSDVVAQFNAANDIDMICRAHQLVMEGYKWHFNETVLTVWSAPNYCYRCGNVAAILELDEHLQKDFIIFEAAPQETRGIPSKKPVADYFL
# UniProt P01130: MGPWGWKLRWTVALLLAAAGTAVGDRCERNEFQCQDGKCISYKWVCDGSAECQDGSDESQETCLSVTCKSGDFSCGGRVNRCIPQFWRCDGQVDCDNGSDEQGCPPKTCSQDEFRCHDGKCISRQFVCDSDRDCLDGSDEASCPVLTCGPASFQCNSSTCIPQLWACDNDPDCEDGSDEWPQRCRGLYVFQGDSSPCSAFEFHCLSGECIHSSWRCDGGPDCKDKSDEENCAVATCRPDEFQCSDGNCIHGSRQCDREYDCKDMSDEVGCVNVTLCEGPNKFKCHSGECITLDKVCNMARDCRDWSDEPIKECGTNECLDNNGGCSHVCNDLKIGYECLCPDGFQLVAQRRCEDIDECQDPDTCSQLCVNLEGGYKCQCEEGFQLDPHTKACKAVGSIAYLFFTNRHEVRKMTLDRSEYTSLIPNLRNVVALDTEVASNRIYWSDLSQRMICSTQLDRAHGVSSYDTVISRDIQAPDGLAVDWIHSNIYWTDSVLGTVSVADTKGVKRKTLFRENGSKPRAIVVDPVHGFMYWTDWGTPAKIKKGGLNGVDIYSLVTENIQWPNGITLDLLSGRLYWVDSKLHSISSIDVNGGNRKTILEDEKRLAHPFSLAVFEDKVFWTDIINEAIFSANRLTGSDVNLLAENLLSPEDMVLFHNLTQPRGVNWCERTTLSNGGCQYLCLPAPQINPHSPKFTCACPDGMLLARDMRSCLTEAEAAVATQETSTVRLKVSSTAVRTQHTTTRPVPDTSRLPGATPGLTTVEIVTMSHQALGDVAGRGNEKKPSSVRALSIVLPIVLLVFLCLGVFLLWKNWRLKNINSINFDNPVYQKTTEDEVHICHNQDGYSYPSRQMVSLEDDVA
# ± gives the standard deviation of the averaged measurements. This is a selection; strong and weak results do not stand in their true shares.
# Compound: Nc1ncnc2c1ncn2[C@@H]1O[C@H](COP(=O)(O)OP(=O)(O)NP(=O)(O)O)[C@@H](O)[C@H]1O [adenylyl imidodiphosphate]
# Assay: NP40-soluble protein abundance relative to vehicle (solubility fold change) (ratio); higher = more soluble protein in presence of AMP-PNP
# Outline: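 Data come from three independent experiments in which Dounce-homogenised Jurkat crude lysate was treated at eight concentrations from 0.1 to 10 mM. Treatment ran 10 min at room temperature and then 3 min at 37 °C, after which 0.8% NP40 and benzonase were added for 60 min at 4 °C before ultracentrifugation. The supernatant underwent TMT labelling and LC-MS/MS, and vsn-normalised intensities were expressed as fold change against the detergent-processed vehicle in each replicate.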
Target,NP40-soluble protein abundance (concentration: 1mM),NP40-soluble protein abundance (concentration: 2mM),NP40-soluble protein abundance (concentration: 4mM),NP40-soluble protein abundance (concentration: 6mM),NP40-soluble protein abundance (concentration: 8mM),NP40-soluble protein abundance (concentration: 10mM)
H3BPZ0 and related entries (UniProt Q6PCT2),1.01 ± 0.054,1.03 ± 0.024,1.036 ± 0.0089,1.01 ± 0.017,1.04 ± 0.023,1.04 ± 0.05
H0YNG3 and related entries (UniProt P67812),0.988 ± 0.054,0.957 ± 0.057,0.978 ± 0.042,0.944 ± 0.026,0.965 ± 0.022,0.986 ± 0.068
J3KP27 and related entries (UniProt Q9Y296),0.994 ± 0.015,0.96 ± 0.06,0.972 ± 0.011,0.959 ± 0.034,0.986 ± 0.031,0.906 ± 0.032
J9JID7 and related entries (UniProt Q03252),0.989 ± 0.026,0.964 ± 0.029,0.875 ± 0.042,0.81 ± 0.0095,0.734 ± 0.023,0.769 ± 0.045
G3XAC1 and related entries (UniProt Q9BXS9),0.969 ± 0.019,0.95 ± 0.042,0.994 ± 0.044,0.98 ± 0.032,0.993 ± 0.019,1.02 ± 0.07
H0YL70 and related entries (UniProt Q04726),1.01 ± 0.017,0.964 ± 0.024,0.999 ± 0.03,0.944 ± 0.021,0.968 ± 0.043,0.916 ± 0.026
J3KNZ9 (UniProt Q9HAH7),0.9532 ± 0.005,0.972 ± 0.033,0.97 ± 0.052,0.96 ± 0.013,0.939 ± 0.024,0.94 ± 0.035
H0Y9Z5 and related entries (UniProt Q96LI5),0.9588 ± 0.0024,0.9201 ± 0.0062,0.95702 ± 0.00066,0.976 ± 0.055,0.972 ± 0.069,0.961 ± 0.029
G5EA30 and related entries (UniProt Q92879),1.06 ± 0.025,1.07 ± 0.066,1.09 ± 0.04,1.11 ± 0.067,1.12 ± 0.057,1.17 ± 0.056
H0YKD8 and related entries (UniProt P46779),1.05 ± 0.14,1.02 ± 0.09,1.01 ± 0.13,0.993 ± 0.071,0.919 ± 0.098,1.05 ± 0.16
J3QL71 and related entries (UniProt Q96FV2),1.12 ± 0.04,1.09 ± 0.025,1.1 ± 0.031,1.05 ± 0.034,1.04 ± 0.033,1.07 ± 0.067
H3BSW6 and related entries (UniProt Q2VPK5),0.978 ± 0.019,0.958 ± 0.036,0.976 ± 0.013,0.972 ± 0.011,0.991 ± 0.014,0.982 ± 0.017
H0Y6E6 and related entries (UniProt Q92622),0.988 ± 0.06,0.964 ± 0.027,0.987 ± 0.03,0.982 ± 0.031,0.966 ± 0.017,0.94 ± 0.019
K7EJ78 and related entries (UniProt P62841),1.01 ± 0.047,0.98 ± 0.078,0.985 ± 0.07,0.951 ± 0.072,0.946 ± 0.042,0.976 ± 0.12
J3KRD0 and related entries (UniProt Q86W34),1 ± 0.038,0.994 ± 0.03,0.968 ± 0.041,0.977 ± 0.011,0.985 ± 0.032,1.03 ± 0.027
J3KPS0 and related entries (UniProt Q9NXW2),1 ± 0.03,0.998 ± 0.036,0.978 ± 0.021,0.957 ± 0.012,0.941 ± 0.015,0.944 ± 0.021
G8JLQ3 and related entries (UniProt P78537),1.01 ± 0.043,1.03 ± 0.018,0.9428 ± 0.0055,0.879 ± 0.017,0.901 ± 0.05,0.862 ± 0.043
I3L1H5 and related entries (UniProt Q9BZG8),1.002 ± 0.0078,0.9752 ± 0.0012,1.02 ± 0.017,0.992 ± 0.017,1.01 ± 0.018,0.962 ± 0.035
I3L1A3 and related entries (UniProt O76021),1.08 ± 0.031,1.12 ± 0.014,1.1 ± 0.018,1.121 ± 0.0097,1.14 ± 0.046,1.23 ± 0.021
H3BNX8 and related entries (UniProt P20674),1.05 ± 0.065,1.07 ± 0.015,1.02 ± 0.041,1.01 ± 0.068,1 ± 0.062,0.974 ± 0.052
H0Y7L2 and related entries (UniProt Q96N67),0.9785 ± 0.0054,0.956 ± 0.09,0.961 ± 0.044,0.971 ± 0.065,0.977 ± 0.11,0.963 ± 0.13
J3KP15 and related entries (UniProt Q01130),1.03 ± 0.036,1.1 ± 0.14,1 ± 0.035,1.01 ± 0.067,0.969 ± 0.059,1.02 ± 0.1
J3KPC5 and related entries (UniProt P47736),0.99 ± 0.024,1.02 ± 0.034,1.02 ± 0.0079,0.9669 ± 0.00046,0.956 ± 0.022,0.991 ± 0.013
H3BTR4 and related entries (UniProt Q96BT3),1.05 ± 0.043,1.05 ± 0.054,1.05 ± 0.046,1.02 ± 0.031,1.04 ± 0.051,1.08 ± 0.079
H0YAA3 and related entries (UniProt Q9HAD4),1 ± 0.015,0.949 ± 0.048,1.03 ± 0.069,0.969 ± 0.051,0.992 ± 0.02,0.944 ± 0.031
H3BUV9 and related entries (UniProt Q96S82),1.04 ± 0.032,1.04 ± 0.038,1.02 ± 0.024,0.979 ± 0.012,0.983 ± 0.024,0.983 ± 0.013
H0YLF3 and related entries (UniProt P61769),0.99 ± 0.055,0.977 ± 0.084,0.923 ± 0.1,0.879 ± 0.15,0.971 ± 0.035,0.917 ± 0.076
H3BQM0 and related entries (UniProt Q8NDF8),0.993 ± 0.044,0.997 ± 0.02,1.04 ± 0.05,1.01 ± 0.039,1.04 ± 0.044,1.04 ± 0.061
H3BTA2 and related entries (UniProt P60510),0.955 ± 0.058,0.867 ± 0.097,0.9368 ± 0.0039,0.896 ± 0.038,0.922 ± 0.013,0.869 ± 0.053
J3KMZ9 and related entries (UniProt P01130),0.992 ± 0.04,1.02 ± 0.035,1.02 ± 0.068,0.975 ± 0.032,0.959 ± 0.024,0.969 ± 0.049

# For convenience, part of the list above.
Target,NP40-soluble protein abundance (concentration: 1mM),NP40-soluble protein abundance (concentration: 2mM),NP40-soluble protein abundance (concentration: 4mM),NP40-soluble protein abundance (concentration: 6mM),NP40-soluble protein abundance (concentration: 8mM),NP40-soluble protein abundance (concentration: 10mM)
H3BNX8 and related entries (UniProt P20674),1.05 ± 0.065,1.07 ± 0.015,1.02 ± 0.041,1.01 ± 0.068,1 ± 0.062,0.974 ± 0.052
H0Y7L2 and related entries (UniProt Q96N67),0.9785 ± 0.0054,0.956 ± 0.09,0.961 ± 0.044,0.971 ± 0.065,0.977 ± 0.11,0.963 ± 0.13
